The target in the assay is GFP-Cobl^1-408∆CaM (mouse) (UniProt Q5NBX1). Kind of assay: co-IP; HEK293 lysates, anti-GFP immunoprecipitation, protein A-agarose, lysis buffer without DTT, 75 mM NaCl (confirmed at 100 mM NaCl); Ca^2+-free, 2 μM Ca^2+, or 2 μM Ca^2+ then 1 mM EGTA; quantitative immunoblot normalized to immunoprecipitated Cobl.

Amino acid sequences for entries named in this document (tags omitted).
UniProt Q9Z0W5: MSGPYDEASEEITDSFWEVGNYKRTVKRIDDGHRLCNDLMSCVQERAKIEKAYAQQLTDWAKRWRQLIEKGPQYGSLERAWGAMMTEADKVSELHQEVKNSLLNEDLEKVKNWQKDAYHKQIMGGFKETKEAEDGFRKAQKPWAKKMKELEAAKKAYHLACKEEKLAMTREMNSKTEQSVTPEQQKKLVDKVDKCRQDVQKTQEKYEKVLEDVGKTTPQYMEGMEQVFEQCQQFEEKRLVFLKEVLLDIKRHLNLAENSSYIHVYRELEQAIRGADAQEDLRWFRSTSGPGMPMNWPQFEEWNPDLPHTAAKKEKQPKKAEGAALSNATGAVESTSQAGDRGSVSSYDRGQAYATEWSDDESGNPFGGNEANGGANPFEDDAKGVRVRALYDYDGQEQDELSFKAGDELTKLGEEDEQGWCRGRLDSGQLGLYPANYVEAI

For one substance, binding results are on record in article PMC4559358.

Results are given in words; binding and its absence hold for the method and conditions named. In cells and extracts the contact can be indirect. Binding can be weak; no strength is given.

For “Flag-syndapin I (from UniProt Q9Z0W5 1-441)”, the binding entry is given as “binds”.
